Reference: patent US20070155757A1, “Use of pyrimidine compounds in the preparation of parasiticides” (priority 2004, published 2007)
Some of these results come from one statement about several compounds together.

tested on: Ctenocephalides felis; assay: Activity in vitro against Ctenocephalides felis (cat flea); settings: at 100 ppm

Compound	efficacy against Ctenocephalides felis
Nc1c(Oc2ccc(F)c(C(F)(F)F)c2)ncnc1Oc1ccc(F)c(C(F)(F)F)c1 [Compound 1.9, 4,6-bis-(4-fluoro-3-(trifluoromethyl)phenoxy)-pyrimidin-5-ylamine]	more than 80%

tested on: Dermanyssus gallinae, Rhipicephalus sanquineus or Ctenocephalides felis; assay: HTS insecticidal or acaricidal efficacy (in vitro tests 1-3, pest not specified); settings: in the HTS; pest and concentration not specified

Compound	insecticidal or acaricidal efficacy
Nc1c(Oc2ccc(F)c(C(F)(F)F)c2)ncnc1Oc1ccc(F)c(C(F)(F)F)c1 [Compound 1.9, 4,6-bis-(4-fluoro-3-(trifluoromethyl)phenoxy)-pyrimidin-5-ylamine]	more than 80%
Nc1c(Oc2ccc(F)c(F)c2)ncnc1Oc1ccc(F)c(C(F)(F)F)c1 [Compound 2.2]	more than 80%
Nc1c(Oc2ccc(F)c(C(F)(F)F)c2)ncnc1Oc1ccccc1C(F)(F)F [Compound 2.11]	more than 80%
Nc1c(Oc2ccc(F)cc2)ncnc1Oc1ccc(F)c(C(F)(F)F)c1 [Compound 2.5]	more than 80%
Nc1c(Oc2ccc(F)c(Cl)c2)ncnc1Oc1ccc(F)c(C(F)(F)F)c1 [Compound 2.1]	more than 80%
Cc1cc(Oc2ncnc(Oc3ccc(F)c(C(F)(F)F)c3)c2N)ccc1Cl [Compound 2.14]	more than 80%
Nc1c(Oc2cccc(F)c2)ncnc1Oc1ccc(F)c(C(F)(F)F)c1 [Compound 2.13]	more than 80%
Nc1c(Oc2ccc(Cl)c(Cl)c2)ncnc1Oc1ccc(F)c(C(F)(F)F)c1 [Compound 2.17]	more than 80%
